Where a name gives a salt, the structure may show the parent alone. Some of the results follow. This is a noisy data set.
System: Peyronie's disease tunica albuginea primary fibroblasts
Experiment: cell viability (DRAQ5 nuclear stain) relative to TGF-beta1-only control; higher = more viable cells
Conditions: 10 µM; TGF-beta1 10 ng/mL; 72 h

| Compound | cell viability |
| --- | --- |
| COc1cccc(-c2ccc(NC(=O)C3=C(C(=O)O)CCC3)c(F)c2)c1 [Vidofludimus] | 79.6% |
| COc1cc(/C=C/C(=O)N2CCN(CC(=O)N3CCCC3)CC2)cc(OC)c1OC [Cinepazide maleate] | 86.7% |
| Nc1ncn([C@@H]2O[C@H](CO)[C@@H](O)[C@H]2O)c(=O)n1 [Azacitidine] | 72.5% |
| CC(COc1ccccc1)N(CCCl)Cc1ccccc1 (stereo not drawn) [Phenoxybenzamine HCl] | 70.1% |
| COc1ccc(CN(CCN(C)C)c2ccccn2)cc1 [Pyrilamine Maleate] | 85.7% |
| CCCNC(C)C(=O)Nc1ccccc1C (stereo not drawn) [Prilocaine hydrochloride] | 74.4% |
| CCCNC(C)C(=O)Nc1ccccc1C (stereo not drawn) [Prilocaine] | 93.1% |
| CCCCC[C@H](O)/C=C/[C@@H]1[C@@H](C/C=C\CCCC(=O)O)[C@@H](O)C[C@H]1O [Dinoprost tromethamine] | 83.7% |
| CC(=O)c1ccc(S(=O)(=O)NC(=O)NC2CCCCC2)cc1 [Acetohexamide] | 101% |
| Cc1c(-c2ccnn2C)cc(C(=O)NCc2ccc(S(C)(=O)=O)cn2)c(=O)n1-c1cccc(C(F)(F)F)c1 [Alvelestat (AZD9668)] | 88.6% |
| CCOC(=O)[C@H](CCc1ccccc1)N[C@H]1CCc2ccccc2N(CC(=O)O)C1=O [Benazepril HCl] | 97.4% |
| COC1=C(OC)C(=O)C(CCCCCCCCCCO)=C(C)C1=O [Idebenone] | 90.3% |
| NCCCC[C@H](N[C@@H](CCc1ccccc1)C(=O)O)C(=O)N1CCC[C@H]1C(=O)O [Lisinopril] | 89.4% |
| O=C(Nc1cccc2c(=O)cc(-c3nnn[nH]3)oc12)c1ccc(OCCCCc2ccccc2)cc1 [Pranlukast] | 84.5% |
| CC(C)(C)NC[C@H](O)COc1nsnc1N1CCOCC1 [Timolol Maleate] | 70.2% |
| CO/N=C(\C(=O)N[C@@H]1C(=O)N2C(C(=O)O)=C(CSc3nc(=O)c(O)nn3C)CS[C@H]12)c1csc(N)n1 [Ceftriaxone Sodium Trihydrate] | 98.9% |
| CO/N=C(\C(=O)N[C@@H]1C(=O)N2C(C(=O)O)=C(CSc3nc(=O)c(O)nn3C)CS[C@H]12)c1csc(N)n1 [Ceftriaxone Sodium] | 26.3% |
| CO[C@@H]1[C@@H](OC(N)=O)[C@@H](O)[C@H](Oc2ccc3c(O)c(NC(=O)c4ccc(O)c(CC=C(C)C)c4)c(=O)oc3c2C)OC1(C)C [Novobiocin Sodium] | 86.2% |
| C=C=CCNC(=O)c1ccc(F)cc1 [Diastase] | 86.3% |
| CCN1CCN(C(=O)N[C@@H](C(=O)N[C@@H]2C(=O)N3[C@@H]2SC(C)(C)[C@@H]3C(=O)O)c2ccccc2)C(=O)C1=O [Piperacillin Sodium] | 86.5% |
| CCCC(=O)Nc1ncnc2c1ncn2[C@@H]1O[C@@H]2COP(=O)(O)O[C@H]2[C@H]1OC(=O)CCC [Dibutyryl-cAMP (Bucladesine)] | 88.9% |
| CN(C)CCC[C@@]1(c2ccc(F)cc2)OCc2cc(C#N)ccc21 [Escitalopram Oxalate] | 89.9% |
| CN1CCCC(n2nc(Cc3ccc(Cl)cc3)c3ccccc3c2=O)CC1 (stereo not drawn) [Azelastine HCl] | 84.3% |
| CN1CCCCC1CCN1c2ccccc2Sc2ccc([S+](C)[O-])cc21 (stereo not drawn) [Mesoridazine Besylate] | 103% |
| NC(=O)N/N=C/c1ccc([N+](=O)[O-])o1 [Nitrofural] | 87% |

| Compound | cell viability |
| --- | --- |
| CC(C)C[C@H](NC(=O)[C@H](CCc1ccccc1)NC(=O)CN1CCOCC1)C(=O)N[C@@H](Cc1ccccc1)C(=O)N[C@@H](CC(C)C)C(=O)[C@@]1(C)CO1 [Carfilzomib (PR-171)] | 30.6% |
| N=C(N)NC(=N)N1CCOCC1 [Moroxydine HCl] | 89.5% |
| CC(=O)Oc1cccc2c1C(=O)c1c(OC(C)=O)cc(C(=O)O)cc1C2=O [Diacerein] | 87.7% |
| N[C@H]1C(O)O[C@H](CO)[C@@H](O)[C@@H]1O (stereo partly drawn) [Glucosamine sulfate] | 85.9% |
| N[C@H]1C(O)O[C@H](CO)[C@@H](O)[C@@H]1O (stereo partly drawn) [Glucosamine hydrochloride] | 86.9% |
| CN(C)CCc1c[nH]c2ccc(Cn3cncn3)cc12 [Rizatriptan Benzoate] | 91.8% |
| OCCN1CCN(CCCN2c3ccccc3Sc3ccc(Cl)cc32)CC1 [Perphenazine] | 79% |
| Nc1ccc(S(=O)(=O)c2ccc(N)cc2)cc1 [Dapson] | 82.7% |
| CC1(C)OC(=O)NC1=O [5,5-Dimethyloxazolidine-2,4-dione] | 86% |
| Nc1ccc(C(=O)NCC(=O)O)cc1 [Sodium 4-aminohippurate Hydrate] | 91.2% |
| COc1ccc(NS(=O)(=O)c2ccc(N)cc2)nn1 [Sulfamethoxypyridazine] | 85.4% |
| CCC[C@H](N[C@@H](C)C(=O)N1[C@H](C(=O)O)C[C@@H]2CCCC[C@@H]21)C(=O)OCC [Perindopril Erbumine] | 92.7% |
| CCCC(=O)O[C@]1(C(=O)COC(C)=O)CC[C@H]2[C@@H]3C[C@H](F)C4=CC(=O)C=C[C@]4(C)[C@@]3(F)[C@@H](O)C[C@@]21C [Difluprednate] | 85.6% |
| Cn1ncc(Cl)c1-c1cc(C(=O)N[C@H](CN)Cc2ccc(F)c(F)c2)oc1Cl | 63.4% |
| O=C(CCCN1CC=C(n2c(=O)[nH]c3ccccc32)CC1)c1ccc(F)cc1 [Droperidol] | 104% |
| Oc1c(I)cc(I)c2cccnc12 [Diiodohydroxyquinoline] | 60.9% |
| C#CCN(C)Cc1ccccc1 [Pargyline hydrochloride] | 85.7% |
| C[C@H]1[C@@H](O)O[C@@H]2O[C@@]3(C)CC[C@H]4[C@H](C)CC[C@@H]1[C@@]24OO3 [Dihydroartemisinin (DHA)] | 80.7% |
| COc1ccc2cc(CCC(C)=O)ccc2c1 [Nabumetone] | 89.2% |
| Cc1ccc(S(=O)(=O)NC(=O)NN2CC3CCCC3C2)cc1 (stereo not drawn) [Gliclazide] | 85.1% |
| CC1(C)S[C@@H]2[C@H](NC(=O)Cc3ccccc3)C(=O)N2[C@H]1C(=O)O.CCN(CC)CCOC(=O)c1ccc(N)cc1 [Penicillin G Procaine] | 83% |
| CC(C)OC(=O)CCC/C=C\C[C@@H]1[C@@H](/C=C/C(F)(F)COc2ccccc2)[C@H](O)C[C@@H]1O [Tafluprost] | 94.1% |
| CCn1cc(C(=O)O)c(=O)c2cnc(N3CCNCC3)nc21 [Pipemidic acid] | 89.5% |
| NCCS(=O)(=O)O [Taurine] | 88.6% |
| CCCCS(=O)(=O)N[C@@H](Cc1ccc(OCCCCC2CCNCC2)cc1)C(=O)O [Tirofiban Hydrochloride] | 96.2% |

| Compound | cell viability |
| --- | --- |
| COc1nc(C)nc(Cl)c1NC1=NCCN1 [Moxonidine] | 84.8% |
| Cc1ccc(NC(=O)c2ccc(CN3CCN(C)CC3)cc2)cc1Nc1nc(-c2cccnc2)cs1 [Masitinib (AB1010)] | 82.6% |
| C=CC[C@@H]1/C=C(\C)C[C@H](C)C[C@H](OC)[C@H]2O[C@@](O)(C(=O)C(=O)N3CCCC[C@H]3C(=O)O[C@H](/C(C)=C/[C@@H]3CC[C@@H](O)[C@H](OC)C3)[C@H](C)[C@@H](O)CC1=O)[C@H](C)C[C@@H]2OC [Tacrolimus (FK506)] | 102% |
| O=C([O-])c1ccccc1O.[Na+] [Sodium salicylate] | 98.2% |
| COc1ccc2[nH]cc(CCNC(C)=O)c2c1 [Melatonin] | 66.4% |
| Cc1ccc(C(=O)c2cc(O)c(O)c([N+](=O)[O-])c2)cc1 [Tolcapone] | 106% |
| COc1cc(CNC(=O)CCCCC=CC(C)C)ccc1O [Capsaicin(Vanilloid)] | 98.1% |
| CCN(Cc1ccncc1)C(=O)C(CO)c1ccccc1 (stereo not drawn) [Tropicamide] | 86.9% |
| CCN(CC)CC#CCOC(=O)C(O)(c1ccccc1)C1CCCCC1 (stereo not drawn) [Oxybutynin] | 93% |
| CCN(CC)CC#CCOC(=O)C(O)(c1ccccc1)C1CCCCC1 (stereo not drawn) [Oxybutynin chloride] | 85.9% |
| Cc1ncc([N+](=O)[O-])n1CCO [Metronidazole] | 82.3% |
| CN1C2CCCC1CC(NC(=O)c1nn(C)c3ccccc13)C2 (stereo not drawn) [Granisetron] | 83.7% |
| CN1C2CCCC1CC(NC(=O)c1nn(C)c3ccccc13)C2 (stereo not drawn) [Granisetron HCl] | 101% |
| CC(C)N1CCN(c2ccc(OCC3COC(Cn4cncn4)(c4ccc(Cl)cc4Cl)O3)cc2)CC1 (stereo not drawn) [Terconazole] | 84.6% |
| CCCc1cc(=O)[nH]c(=S)[nH]1 [Propylthiouracil] | 89.7% |
| Cc1onc(-c2ccccc2)c1-c1ccc(S(N)(=O)=O)cc1 [Valdecoxib] | 101% |
| CO/N=C(\C(=O)N[C@@H]1C(=O)N2C(C(=O)OCOC(=O)C(C)(C)C)=C(/C=C\c3scnc3C)CS[C@H]12)c1csc(N)n1 [Cefditoren Pivoxil] | 90.1% |
| CN(N=O)C(=O)NC1C(O)OC(CO)C(O)C1O (stereo not drawn) [Streptozotocin (STZ)] | 80.9% |
| Oc1ncnc2[nH]ncc12 [Allopurinol] | 95.5% |
| C=C[C@]1(C)C[C@@H](OC(=O)CS[C@@H]2C[C@H]3CC[C@@H](C2)N3C)[C@]2(C)[C@H](C)CC[C@]3(CCC(=O)[C@H]32)[C@@H](C)[C@@H]1O [Retapamulin] | 82.7% |
| CCOC(=O)C1=C[C@@H](OC(CC)CC)[C@H](NC(C)=O)[C@@H](N)C1 [Oseltamivir Phosphate] | 92.8% |
| C[C@]12CCC(=O)C=C1CC[C@@H]1[C@@H]2[C@@H](O)C[C@@]2(C)[C@H]1CC[C@]2(O)C(=O)CO [Hydrocortisone] | 75% |
| Cn1nnc(-c2ccc(-c3ccc(N4C[C@H](COP(=O)(O)O)OC4=O)cc3F)cn2)n1 [Tedizolid Phosphate] | 97.5% |

For reference, part of the list above.

| Compound | cell viability |
| --- | --- |
| CCOC(=O)C1=C[C@@H](OC(CC)CC)[C@H](NC(C)=O)[C@@H](N)C1 [Oseltamivir Phosphate] | 92.8% |
| C[C@]12CCC(=O)C=C1CC[C@@H]1[C@@H]2[C@@H](O)C[C@@]2(C)[C@H]1CC[C@]2(O)C(=O)CO [Hydrocortisone] | 75% |

Reference: the supplement of paper PMC9744312
